From PMC4741643
Results are given in words; binding and its absence hold for the method and conditions named. For part of these data: Binding seen in cells or lysates may run through a third protein. For part of these data: Tags and fused reporters may be left off the sequences shown.

Amino acid sequences for entries named in this document (tags omitted). A change or cut given only in a name is not applied to a line headed by its entry.
UniProt P17948: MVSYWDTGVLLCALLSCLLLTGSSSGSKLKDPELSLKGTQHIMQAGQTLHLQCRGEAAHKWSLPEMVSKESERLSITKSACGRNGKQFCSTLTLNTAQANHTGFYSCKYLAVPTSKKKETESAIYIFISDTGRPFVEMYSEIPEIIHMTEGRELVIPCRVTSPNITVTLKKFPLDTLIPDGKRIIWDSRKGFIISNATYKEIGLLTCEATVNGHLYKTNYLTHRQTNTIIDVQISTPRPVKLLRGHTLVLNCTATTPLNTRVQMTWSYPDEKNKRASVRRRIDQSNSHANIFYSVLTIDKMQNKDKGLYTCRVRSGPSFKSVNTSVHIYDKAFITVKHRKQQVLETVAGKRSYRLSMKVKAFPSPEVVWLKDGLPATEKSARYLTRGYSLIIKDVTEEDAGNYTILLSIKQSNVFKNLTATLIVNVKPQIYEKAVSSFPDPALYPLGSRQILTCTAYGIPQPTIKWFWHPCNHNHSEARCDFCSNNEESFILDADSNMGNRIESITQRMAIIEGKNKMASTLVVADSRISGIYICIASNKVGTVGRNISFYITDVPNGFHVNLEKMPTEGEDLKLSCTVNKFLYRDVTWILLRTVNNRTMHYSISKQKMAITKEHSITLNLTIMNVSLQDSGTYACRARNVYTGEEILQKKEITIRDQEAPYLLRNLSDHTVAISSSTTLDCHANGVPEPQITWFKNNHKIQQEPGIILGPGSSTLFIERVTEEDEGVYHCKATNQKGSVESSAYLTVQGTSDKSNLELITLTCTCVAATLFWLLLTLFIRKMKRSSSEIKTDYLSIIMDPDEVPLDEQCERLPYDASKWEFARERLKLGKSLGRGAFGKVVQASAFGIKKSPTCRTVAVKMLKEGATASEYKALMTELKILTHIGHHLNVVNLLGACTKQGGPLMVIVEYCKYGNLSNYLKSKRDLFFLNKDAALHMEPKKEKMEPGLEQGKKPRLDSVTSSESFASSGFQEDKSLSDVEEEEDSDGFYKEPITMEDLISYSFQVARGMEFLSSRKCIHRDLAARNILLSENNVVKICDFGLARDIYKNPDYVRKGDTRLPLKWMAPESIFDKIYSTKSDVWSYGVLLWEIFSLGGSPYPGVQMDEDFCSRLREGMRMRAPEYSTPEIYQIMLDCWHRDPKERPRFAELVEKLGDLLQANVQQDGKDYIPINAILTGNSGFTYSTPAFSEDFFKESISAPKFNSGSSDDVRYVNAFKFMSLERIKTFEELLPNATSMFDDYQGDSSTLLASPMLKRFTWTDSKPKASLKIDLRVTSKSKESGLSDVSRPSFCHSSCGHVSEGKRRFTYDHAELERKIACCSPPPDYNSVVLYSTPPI

Assays:
[1] = molecular target: T1, endogenous sMEK1 (human (endogenous in HEK293T)) (UniProt Q6IN85); assay: co-IP; endogenous proteins in total lysates of HEK293T cells; IP with an antibody as indicated, Western blot with anti-sMEK1 or anti-VEGFR-2; rabbit IgG and VEGFR-1 as negative controls
T1 sequence: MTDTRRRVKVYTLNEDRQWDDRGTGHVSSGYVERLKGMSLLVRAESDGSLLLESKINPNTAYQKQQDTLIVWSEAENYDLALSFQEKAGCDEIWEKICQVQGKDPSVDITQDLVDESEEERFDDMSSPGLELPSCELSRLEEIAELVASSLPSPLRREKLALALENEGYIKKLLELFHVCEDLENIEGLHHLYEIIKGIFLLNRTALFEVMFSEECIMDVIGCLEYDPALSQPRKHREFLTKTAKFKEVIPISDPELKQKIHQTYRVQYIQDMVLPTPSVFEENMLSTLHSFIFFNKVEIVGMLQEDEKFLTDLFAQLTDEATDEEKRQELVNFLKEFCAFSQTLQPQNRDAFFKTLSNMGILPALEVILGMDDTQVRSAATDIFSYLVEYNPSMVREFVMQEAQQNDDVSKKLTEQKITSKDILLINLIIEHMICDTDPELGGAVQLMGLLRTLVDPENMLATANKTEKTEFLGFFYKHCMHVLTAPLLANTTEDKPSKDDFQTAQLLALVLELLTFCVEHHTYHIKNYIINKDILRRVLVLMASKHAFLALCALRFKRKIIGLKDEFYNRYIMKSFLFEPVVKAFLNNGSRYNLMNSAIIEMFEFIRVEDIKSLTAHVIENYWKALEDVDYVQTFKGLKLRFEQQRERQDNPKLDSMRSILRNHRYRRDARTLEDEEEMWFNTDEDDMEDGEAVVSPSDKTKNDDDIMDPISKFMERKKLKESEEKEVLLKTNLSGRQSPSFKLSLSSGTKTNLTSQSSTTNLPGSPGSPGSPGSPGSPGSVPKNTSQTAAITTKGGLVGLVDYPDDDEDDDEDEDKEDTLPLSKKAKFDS

[2] = molecular target: T2, FLAG-sMEK1 (pcDNA3.1/Flag-sMEK1) (human) (UniProt Q6IN85); assay: co-IP; HEK293T cells co-transfected with pcDNA3.1/Flag-sMEK1 and pcDNA3.1-VEGFR-1 or pcDNA3.1-VEGFR-2; lysis in 50 mM Tris/HCl pH 7.2, 150 mM NaCl, 1% Triton X-100; anti-Flag antibody and protein A-agarose; blots with anti-sMEK1, anti-VEGFR-1 or anti-VEGFR-2
T2 sequence: T1 sequence

[3] = molecular target: T3, suppressor of MEK null (sMEK1), full-length human, pGilda fusion (human) (UniProt Q6IN85); assay: two-hybrid; EGY48 yeast cells; pGilda-sMEK1 as bait, pJG4-5 fusions as prey; growth on medium lacking leucine, blue colonies on X-gal plates with 2% galactose, β-galactosidase activity with ONPG
T3 sequence: T1 sequence

## endogenous VEGFR-1 (from UniProt P17948 27-1338) (receptor)
[1]
  binding: no binding

## VEGFR-1 (pcDNA3.1-VEGFR-1) (from UniProt P17948 27-1338) (receptor)
[2]
  binding: no binding

## VEGFR-1, yeast two-hybrid construct (from UniProt P17948 1-1338) (receptor)
[3]
  binding: no binding
